Data from US8026378B2, “Glyceryl ether compounds and their use” (Segetis, Inc., priority 2005, dated 2011).
Some of these results come from one statement about several compounds together.

Assay: Emulsifying properties: hexane/water emulsions
Assay type: physicochemical
Conditions: hexane in water 1:1 vol; mixture of isomers
Excerpt: […] The emulsifying properties of compounds (12a) and (12b) were not disrupted by the addition of 0.2% calcium chloride or magnesium chloride.

concentration at which aqueous solutions form stable emulsions of hexane in water	SMILES
> 0.2%	CCCCCCCCC(O)COCC(O)CO (centres unmarked) [Compound 12a]
> 0.2%	CCCCCCCCC(CO)OCC(O)CO (centres unmarked) [Compound 12b]
